The chains are these.
B1: long-chain specific acyl-CoA dehydrogenase, mitochondrial (protein, UniProt P28330 31-430)
chain: GGEERLETPSAKKLTDIGIRRIFSPEHDIFRKSVRKFFQEEVIPHHSEWEKAGEVSREVWEKAGKQGLLGVNIAEHLGGIGGDLYSAAIVWEEQAYSNCSGPGFSIHSGIVMSYITNHGSEEQIKHFIPQMTAGKCIGAIAMTEPGAGSDLQGIKTNAKKDGSDWILNGSKVFISNGSLSDVVIVVAVTNHEAPSPAHGISLFLVENGMKGFIKGRKLHKMGLKAQDTAELFFEDIRLPASALLGEENKGFYYIMKELPQERLLIADVAISASEFMFEETRNYVKQRKAFGKTVAHLQTVQHKLAELKTHICVTRAFVDNCLQLHEAKRLDSATACMAKYWASELQNSVAYDCVQLHGGWGYMWEYPIAKAYVDARVQPIYGGTNEIMKELIAREIVFDK
B2: mitochondrial import inner membrane translocase subunit Tim13 (protein, UniProt Q9Y5L4 1-95)
chain: MEGGFGSDFGGSGSGKLDPGLIMEQVKVQIAVANAQELLQRMTDKCFRKCIGKPGGSLDNSEQKCIAMCMDRYMDAWNTVSRAYNSRLQRERANM
B3: mitochondrial 2-oxoglutarate/malate carrier protein isoform 1 (protein, UniProt Q02978 1-314)
chain: MAATASAGAGGIDGKPRTSPKSVKFLFGGLAGMGATVFVQPLDLVKNRMQLSGEGAKTREYKTSFHALTSILKAEGLRGIYTGLSAGLLRQATYTTTRLGIYTVLFERLTGADGTPPGFLLKAVIGMTAGATGAFVGTPAEVALIRMTADGRLPADQRRGYKNVFNALIRITREEGVLTLWRGCIPTMARAVVVNAAQLASYSQSKQFLLDSGYFSDNILCHFCASMISGLVTTAASMPVDIAKTRIQNMRMIDGKPEYKNGLDVLFKVVRYEGFFSLWKGFTPYYARLGPHTVLTFIFLEQMNKAYKRLFLSG
B4: alcohol dehydrogenase [NADP(+)] (protein, UniProt P14550 1-325)
chain: MAASCVLLHTGQKMPLIGLGTWKSEPGQVKAAVKYALSVGYRHIDCAAIYGNEPEIGEALKEDVGPGKAVPREELFVTSKLWNTKHHPEDVEPALRKTLADLQLEYLDLYLMHWPYAFERGDNPFPKNADGTICYDSTHYKETWKALEALVAKGLVQALGLSNFNSRQIDDILSVASVRPAVLQVECHPYLAQNELIAHCQARGLEVTAYSPLGSSDRAWRDPDEPVLLEEPVVLALAEKYGRSPAQILLRWQVQRKVICIPKSITPSRILQNIKVFDFTFSPEEMKQLNALNKNWRYIVPMLTVDGKRVPRDAGHPLYPFNDPY
B5: hydroxymethylglutaryl-CoA synthase, mitochondrial isoform 1 (protein, UniProt P54868 38-508)
chain: TASAVPLAKTDTWPKDVGILALEVYFPAQYVDQTDLEKYNNVEAGKYTVGLGQTRMGFCSVQEDINSLCLTVVQRLMERIQLPWDSVGRLEVGTETIIDKSKAVKTVLMELFQDSGNTDIEGIDTTNACYGGTASLFNAANWMESSSWDGRYAMVVCGDIAVYPSGNARPTGGAGAVAMLIGPKAPLALERGLRGTHMENVYDFYKPNLASEYPIVDGKLSIQCYLRALDRCYTSYRKKIQNQWKQAGSDRPFTLDDLQYMIFHTPFCKMVQKSLARLMFNDFLSASSDTQTSLYKGLEAFGGLKLEDTYTNKDLDKALLKASQDMFDKKTKASLYLSTHNGNMYTSSLYGCLASLLSHHSAQELAGSRIGAFSYGSGLAASFFSFRVSQDAAPGSPLDKLVSSTSDLPKRLASRKCVSPEEFTEIMNQREQFYHKVNFSPPGDTNSLFPGTWYLERVDEQHRRKYARRPV

The chains behind the UniProt entries cited, without tags or fusion partners. Residues count along the entry.
UniProt O75306, residues 34-463: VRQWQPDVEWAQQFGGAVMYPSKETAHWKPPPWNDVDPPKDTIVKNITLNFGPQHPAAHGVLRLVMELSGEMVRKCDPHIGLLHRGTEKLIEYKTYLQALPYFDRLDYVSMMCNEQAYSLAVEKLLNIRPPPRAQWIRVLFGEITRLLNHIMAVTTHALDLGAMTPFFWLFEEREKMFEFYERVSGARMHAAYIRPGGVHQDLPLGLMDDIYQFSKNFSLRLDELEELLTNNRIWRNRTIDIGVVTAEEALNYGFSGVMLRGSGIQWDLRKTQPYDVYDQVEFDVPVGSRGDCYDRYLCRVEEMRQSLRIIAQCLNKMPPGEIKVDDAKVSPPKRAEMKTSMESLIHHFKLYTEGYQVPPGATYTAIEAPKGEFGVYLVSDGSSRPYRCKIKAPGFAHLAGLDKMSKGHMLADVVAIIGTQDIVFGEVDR
UniProt Q8WVM0, residues 28-346: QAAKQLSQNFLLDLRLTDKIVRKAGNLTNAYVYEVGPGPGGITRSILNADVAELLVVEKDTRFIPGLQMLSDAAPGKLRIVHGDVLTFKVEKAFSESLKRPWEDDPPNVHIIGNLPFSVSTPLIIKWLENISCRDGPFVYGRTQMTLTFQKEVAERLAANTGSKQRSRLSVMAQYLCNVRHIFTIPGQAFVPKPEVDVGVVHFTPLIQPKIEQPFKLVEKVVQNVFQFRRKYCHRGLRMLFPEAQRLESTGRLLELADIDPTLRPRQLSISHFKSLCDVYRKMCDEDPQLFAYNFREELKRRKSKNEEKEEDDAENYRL
UniProt O14818: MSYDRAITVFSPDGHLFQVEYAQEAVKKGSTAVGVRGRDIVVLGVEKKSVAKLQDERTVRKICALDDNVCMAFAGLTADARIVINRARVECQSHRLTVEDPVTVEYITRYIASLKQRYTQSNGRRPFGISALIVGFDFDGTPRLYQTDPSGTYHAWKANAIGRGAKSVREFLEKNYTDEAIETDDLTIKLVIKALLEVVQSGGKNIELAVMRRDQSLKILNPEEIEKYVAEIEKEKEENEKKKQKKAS

No constants are given. Whether binding was seen depends on the method and setting. Binding seen in cells or lysates may run through a third protein. Here binding means that the protein was enriched with, or labelled near, the bait; the list need not be complete.

This experiment addresses NDUFS2, bait of the co-IP for protein mass spectrometry (UniProt O75306). In words: affinity purification with mass spectrometry; co-IP to capture NDUFS2 interactors, precipitate analysed by protein mass spectrometry; cells not stated (pancreatic cancer; legend of Fig. 3A: after overexpression of NDUFS2).
For “dimethyladenosine transferase 1, mitochondrial (from UniProt Q8WVM0 28-346)”, the binding entry is “binds”.
Regarding “proteasome subunit alpha type-7 (from UniProt O14818 1-248)”, the binding result is reported as “binds”.
To B1 belongs “binds”.
As to B2, the binding result was “binds”.
As for B3, the binding entry was “binds”.
To B4 belongs “binds”; to B5, “binds”.

These data come from paper PMC11039712.
